Data as given in PMC10825207.
These are yes or no findings as the source states them, for the method shown. In cells and extracts the contact can be indirect. Here binding means that the protein was enriched with, or labelled near, the bait; the list need not be complete.

Chains of the proteins cited; added tags and fusions are not shown.
UniProt O14965: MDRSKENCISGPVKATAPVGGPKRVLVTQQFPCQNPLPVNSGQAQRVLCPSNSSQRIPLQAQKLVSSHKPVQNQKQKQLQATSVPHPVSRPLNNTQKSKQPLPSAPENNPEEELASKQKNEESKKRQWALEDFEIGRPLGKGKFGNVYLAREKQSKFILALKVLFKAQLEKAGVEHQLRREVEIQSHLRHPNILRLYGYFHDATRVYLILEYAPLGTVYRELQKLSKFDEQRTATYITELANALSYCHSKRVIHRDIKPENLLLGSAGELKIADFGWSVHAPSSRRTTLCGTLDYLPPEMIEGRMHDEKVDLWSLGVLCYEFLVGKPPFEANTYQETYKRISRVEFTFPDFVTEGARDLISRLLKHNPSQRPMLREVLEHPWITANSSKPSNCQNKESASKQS
UniProt P06748: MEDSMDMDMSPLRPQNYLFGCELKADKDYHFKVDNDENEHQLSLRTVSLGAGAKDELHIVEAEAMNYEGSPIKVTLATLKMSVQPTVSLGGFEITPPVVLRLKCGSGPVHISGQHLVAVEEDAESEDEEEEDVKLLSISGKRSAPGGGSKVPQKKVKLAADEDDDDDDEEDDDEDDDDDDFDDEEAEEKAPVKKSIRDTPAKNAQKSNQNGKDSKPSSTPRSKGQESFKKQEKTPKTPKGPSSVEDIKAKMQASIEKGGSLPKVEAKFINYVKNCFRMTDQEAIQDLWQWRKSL

Target: Aurora kinase A (AURKA) (human (endogenous in A673 and other ES cell lines)) (UniProt O14965)
Assay: affinity purification with mass spectrometry; A673 lysate precipitated with anti-AURKA antibody; SDS-PAGE, silver staining, differing bands (35-40 kDa) cut for mass spectrometry; IgG as negative control

binding: binds
Substance: nucleophosmin1 (NPM1) (from UniProt P06748 1-294)
